Experimental data taken from article PMC4063743.
Results are given in words; binding and its absence hold for the method and conditions named. In cells and extracts the contact can be indirect. Some results given as binding are weak or reduced against the parent protein; the word gives no strength. Where a sequence is shown, tags or fusion partners need not be part of it.

Target: T1, GST-Vvl fusion protein (Tribolium Ventral veins lacking/Drifter) (Tribolium castaneum) (UniProt C0KZ11)
T1 sequence: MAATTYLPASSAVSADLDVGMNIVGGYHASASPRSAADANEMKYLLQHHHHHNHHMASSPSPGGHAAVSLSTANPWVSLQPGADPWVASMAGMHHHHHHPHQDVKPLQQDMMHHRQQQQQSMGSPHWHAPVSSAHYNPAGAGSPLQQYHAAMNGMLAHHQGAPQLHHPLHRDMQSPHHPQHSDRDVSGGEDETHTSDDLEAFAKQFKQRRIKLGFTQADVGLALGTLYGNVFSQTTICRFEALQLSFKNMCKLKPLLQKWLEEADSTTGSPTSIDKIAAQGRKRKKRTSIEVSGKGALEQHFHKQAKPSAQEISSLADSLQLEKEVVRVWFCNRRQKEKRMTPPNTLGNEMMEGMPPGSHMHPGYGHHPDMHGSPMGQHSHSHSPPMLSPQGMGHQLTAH
Experiment: pull-down; GST-Vvl held on Glutathione Sepharose 4B, incubated with Flag-Met, Flag-EcRA, Flag-EcRB and/or Flag-Usp for 2 hours at 4°C; Flag-tagged protein detected by anti-Flag M2 blot; only the target purified

B1: Flag-Usp fusion protein (Tribolium Ultraspiracle) (protein, UniProt A1JUG2 1-407)
chain: MESTDRALSLDQNLSMGSLGAPQSPLDMKPDASTLGQFSPQGPNSPVSFSMGGHGSLLSPSGNTPNKSSTSPYPPNHPLSGSKHLCSICGDRASGKHYGVYSCEGCKGFFKRTVRKDLSYACREEKNCIIDKRQRNRCQYCRYQKCLNMGMKREAVQEERQRTKDRDTSEVESTSNLQADMPLERIIEAEKRVECNDPLVALVVNENNTTVNNICQATHKQLFQLVQWAKLVPHFTSLPLTDQVQLLRAGWNELLIAAFSHRSMQAQDAIVLATGLTVNKSTAHAVGVGNIYDRVLSELVNKMKEMKMDKTELGCLRAIILYNPDVRGIKSVQEVEMLREKIYGVLEEYTRTTHPNEPGRFAKLLLRLPALRSIGLKCLEHLFFFKLIGDVPIDTFLMEMLEGTTDS
binding: binds
